Article PMC8189927
These are yes or no findings as the source states them, for the method shown. Binding seen in cells or lysates may run through a third protein. Some results given as binding are weak or reduced against the parent protein; the word gives no strength.

Target: Flag-SQSTM1, Q13501
Assay: co-IP; cytoplasmic supernatant of transfected BT-549 cells in hypo-osmic buffer (25 mmol/L Tris pH 7.4, 85 mmol/L KCl) incubated with Flag antibody-conjugated agarose beads overnight at 4°C; Western blotting
Conditions: remark: other sources report otherwise

binding: binds
B1: cGAS (GMP-AMP synthase), Q8N884 1-522 (protein)
chain: MQPWHGKAMQRASEAGATAPKASARNARGAPMDPTESPAAPEAALPKAGKFGPARKSGSRQKKSAPDTQERPPVRATGARAKKAPQRAQDTQPSDATSAPGAEGLEPPAAREPALSRAGSCRQRGARCSTKPRPPPGPWDVPSPGLPVSAPILVRRDAAPGASKLRAVLEKLKLSRDDISTAAGMVKGVVDHLLLRLKCDSAFRGVGLLNTGSYYEHVKISAPNEFDVMFKLEVPRIQLEEYSNTRAYYFVKFKRNPKENPLSQFLEGEILSASKMLSKFRKIIKEEINDIKDTDVIMKRKRGGSPAVTLLISEKISVDITLALESKSSWPASTQEGLRIQNWLSAKVRKQLRLKPFYLVPKHAKEGNGFQEETWRLSFSHIEKEILNNHGKSKTCCENKEEKCCRKDCLKLMKYLLEQLKERFKDKKHLDKFSSYHVKTAFFHVCTQNPQDSQWDRKDLGLCFDNCVTYFLQCLRTEKLENYFIPEFNLFSSNLIDKRSKEFLTKQIEYERNNEFPVFDEF
